Cleaved PARP in drug-treated melanoma cells

Data from the primary screen of doi:10.1371/journal.pone.0140310, rounded.

Compounds and concentrations:
A-769662: N#Cc1c(O)c2c(-c3ccc(-c4ccccc4O)cc3)csc2[nH]c1=O at 10000 nM
lestaurtinib: C[C@]12O[C@H](C[C@]1(O)CO)n1c3ccccc3c3c4c(c5c6ccccc6n2c5c31)CNC4=O at 20 nM
ENMD-2076: Cc1cc(Nc2cc(N3CCN(C)CC3)nc(/C=C/c3ccccc3)n2)n[nH]1 at 200 nM
docetaxel: CC(=O)O[C@@]12CO[C@@H]1C[C@H](O)[C@@]1(C)C(=O)[C@H](O)C3=C(C)[C@@H](OC(=O)[C@H](O)[C@@H](NC(=O)OC(C)(C)C)c4ccccc4)C[C@@](O)([C@@H](OC(=O)c4ccccc4)[C@H]21)C3(C)C at 0.5 nM
BI-78D3: O=c1[nH]nc(Sc2ncc([N+](=O)[O-])s2)n1-c1ccc2c(c1)OCCO2 at 1000 nM
decitabine: Nc1ncn([C@H]2C[C@H](O)[C@@H](CO)O2)c(=O)n1 at 500 nM
OSU-03012: NCC(=O)Nc1ccc(-n2nc(C(F)(F)F)cc2-c2ccc3c(ccc4ccccc43)c2)cc1 at 5000 nM
NVP-TAE684: COc1cc(N2CCC(N3CCN(C)CC3)CC2)ccc1Nc1ncc(Cl)c(Nc2ccccc2S(=O)(=O)C(C)C)n1 at 400 nM
nutlin-3: COc1ccc(C2=N[C@@H](c3ccc(Cl)cc3)[C@@H](c3ccc(Cl)cc3)N2C(=O)N2CCNC(=O)C2)c(OC(C)C)c1 at 500 nM
RKI-983: C[C@@H](N)c1ccc(C(=O)Nc2ccnc3[nH]ccc23)cc1 at 2000 nM

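Human melanoma cell lines in 1,536-well plates were treated with a pair of drugs for 72 h, then fixed, stained and imaged. Each value is the cleaved-PARP-positive fraction of nuclei relative to DMSO-treated wells, in %, so that 100 equals the control and higher values mean more apoptosis. Every drug was used at one fixed concentration, the higher of two screened. The file gives one value for each pair and line, without errors, so small differences may be noise. The marker varies much from line to line, for technical or biological reasons.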 An unselected part of the screen is shown. A dash means that no value is listed here.

Pair,LOX IMVI,LB2518-MEL,SK-MEL-2,WM1716,COLO 792,WM115,A375,IPC-298,A2058,COLO 829
nutlin-3 + decitabine,189,88.8,116,83.7,103,203,30.3,150,250,193
nutlin-3 + A-769662,112,112,128,163,71.0,54.1,78.8,29.6,87.8,66.6
A-769662 + BI-78D3,75.2,98.2,60.8,78.8,71.0,62.2,36.6,74.7,109,78.6
RKI-983 + docetaxel,464,543,2560,1740,1350,875,189,890,2320,347
docetaxel + A-769662,291,387,895,589,593,151,218,670,4400,281
A-769662 + NVP-TAE684,99.6,81.3,118,108,129,149,81.7,46.0,219,94.1
nutlin-3 + RKI-983,163,180,271,301,450,244,123,118,214,126
A-769662 + decitabine,103,66.3,144,89.3,53.4,156,40.4,78.9,192,43.3
decitabine + BI-78D3,76.5,112,45.0,150,161,296,35.8,262,192,169
ENMD-2076 + A-769662,96.9,108,84.3,70.7,99.2,92.7,87.7,48.8,145,116
NVP-TAE684 + BI-78D3,75.4,61.6,110,178,121,443,96.6,126,166,77.6
NVP-TAE684 + decitabine,103,98.7,171,131,194,299,237,57.8,230,182
ENMD-2076 + RKI-983,76.8,83.0,244,753,203,403,57.8,434,283,133
RKI-983 + BI-78D3,41.4,67.7,329,362,253,176,116,30.6,344,106
lestaurtinib + nutlin-3,216,235,232,65.0,221,89.0,58.7,366,116,107
RKI-983 + A-769662,208,124,247,78.1,146,49.6,109,69.7,199,97.3
decitabine + RKI-983,182,171,214,510,296,217,204,147,360,114
OSU-03012 + BI-78D3,161,44.1,608,25.7,163,21.9,-,169,53.9,80.6
ENMD-2076 + decitabine,94.1,127,88.5,46.1,126,329,110,321,225,188
RKI-983 + OSU-03012,384,196,1110,227,165,76.9,-,263,179,94.4
lestaurtinib + decitabine,88.1,129,163,117,261,243,175,428,208,149
A-769662 + lestaurtinib,192,177,105,113,130,258,30.8,130,160,66.3
NVP-TAE684 + RKI-983,97.8,46.7,166,502,235,59.5,102,80.5,799,87.7
OSU-03012 + ENMD-2076,89.8,-,349,82.4,66.6,208,-,229,74.3,221
lestaurtinib + RKI-983,152,220,191,290,337,78.5,95.8,90.7,296,136
OSU-03012 + A-769662,107,135,1590,60.4,51.3,96.7,154,261,102,89.2
OSU-03012 + docetaxel,38.5,523,573,1910,847,1330,-,362,2790,529
nutlin-3 + ENMD-2076,224,55.2,44.5,45.4,196,298,73.2,81.3,99.0,211
NVP-TAE684 + lestaurtinib,24.8,69.2,155,111,166,78.5,72.4,108,185,131
NVP-TAE684 + docetaxel,239,693,1690,919,1100,142,256,200,3890,430
OSU-03012 + lestaurtinib,82.8,55.3,487,13.9,90.6,223,-,43.6,77.5,108
docetaxel + BI-78D3,187,453,2560,236,549,574,169,993,1140,545
ENMD-2076 + NVP-TAE684,35.0,734,178,138,140,254,242,189,184,56.7
docetaxel + nutlin-3,193,296,759,946,651,581,67.1,515,1500,362
docetaxel + lestaurtinib,119,425,2710,921,2620,4100,93.8,715,3340,346
BI-78D3 + ENMD-2076,77.6,167,130,80.5,112,183,55.5,97.1,113,97.6
NVP-TAE684 + nutlin-3,146,118,302,113,195,83.3,240,168,237,189

The first 4 entries again:

Pair,LOX IMVI,LB2518-MEL,SK-MEL-2,WM1716,COLO 792,WM115,A375,IPC-298,A2058,COLO 829
nutlin-3 + decitabine,189,88.8,116,83.7,103,203,30.3,150,250,193
nutlin-3 + A-769662,112,112,128,163,71.0,54.1,78.8,29.6,87.8,66.6
A-769662 + BI-78D3,75.2,98.2,60.8,78.8,71.0,62.2,36.6,74.7,109,78.6
RKI-983 + docetaxel,464,543,2560,1740,1350,875,189,890,2320,347